Results are given in words; binding and its absence hold for the method and conditions named. Binding seen in cells or lysates may run through a third protein. Some results given as binding are weak or reduced against the parent protein; the word gives no strength.

By UniProt entry, the sequences of proteins in these tests, tags left out. Residues count along the entry.
UniProt Q61501: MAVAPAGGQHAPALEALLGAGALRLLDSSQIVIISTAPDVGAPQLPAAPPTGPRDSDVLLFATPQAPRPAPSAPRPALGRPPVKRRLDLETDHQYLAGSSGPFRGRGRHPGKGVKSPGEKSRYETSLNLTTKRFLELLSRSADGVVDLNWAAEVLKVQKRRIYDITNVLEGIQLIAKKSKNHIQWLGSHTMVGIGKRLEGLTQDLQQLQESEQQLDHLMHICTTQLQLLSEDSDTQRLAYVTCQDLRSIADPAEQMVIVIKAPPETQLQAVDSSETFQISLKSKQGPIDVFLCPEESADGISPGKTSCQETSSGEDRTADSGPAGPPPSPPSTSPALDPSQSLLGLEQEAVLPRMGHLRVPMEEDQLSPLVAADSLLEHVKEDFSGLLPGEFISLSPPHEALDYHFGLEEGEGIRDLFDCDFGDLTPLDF
UniProt P30561, residues 10-848: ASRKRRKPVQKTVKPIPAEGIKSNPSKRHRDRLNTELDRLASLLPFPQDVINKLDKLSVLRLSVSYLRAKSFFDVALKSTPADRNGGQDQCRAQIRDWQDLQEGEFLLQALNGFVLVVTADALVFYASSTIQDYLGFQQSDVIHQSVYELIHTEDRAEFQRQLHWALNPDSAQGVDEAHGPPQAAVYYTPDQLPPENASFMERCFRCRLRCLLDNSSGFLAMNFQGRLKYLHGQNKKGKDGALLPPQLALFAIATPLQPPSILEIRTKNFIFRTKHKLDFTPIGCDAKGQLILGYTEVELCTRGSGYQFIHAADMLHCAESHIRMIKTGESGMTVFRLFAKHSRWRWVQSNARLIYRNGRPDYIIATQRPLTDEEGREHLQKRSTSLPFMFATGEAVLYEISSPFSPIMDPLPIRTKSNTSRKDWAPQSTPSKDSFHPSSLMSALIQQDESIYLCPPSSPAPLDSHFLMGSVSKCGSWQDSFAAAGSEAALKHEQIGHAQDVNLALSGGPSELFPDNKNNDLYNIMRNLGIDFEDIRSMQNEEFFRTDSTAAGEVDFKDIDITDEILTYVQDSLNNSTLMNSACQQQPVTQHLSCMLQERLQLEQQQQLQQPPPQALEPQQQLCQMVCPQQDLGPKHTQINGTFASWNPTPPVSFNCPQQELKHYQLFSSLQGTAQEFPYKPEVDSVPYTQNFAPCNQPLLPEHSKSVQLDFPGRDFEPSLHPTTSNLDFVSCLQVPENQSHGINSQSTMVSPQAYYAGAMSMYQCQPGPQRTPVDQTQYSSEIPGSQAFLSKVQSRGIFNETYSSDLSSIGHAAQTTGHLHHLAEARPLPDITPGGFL
UniProt O09106: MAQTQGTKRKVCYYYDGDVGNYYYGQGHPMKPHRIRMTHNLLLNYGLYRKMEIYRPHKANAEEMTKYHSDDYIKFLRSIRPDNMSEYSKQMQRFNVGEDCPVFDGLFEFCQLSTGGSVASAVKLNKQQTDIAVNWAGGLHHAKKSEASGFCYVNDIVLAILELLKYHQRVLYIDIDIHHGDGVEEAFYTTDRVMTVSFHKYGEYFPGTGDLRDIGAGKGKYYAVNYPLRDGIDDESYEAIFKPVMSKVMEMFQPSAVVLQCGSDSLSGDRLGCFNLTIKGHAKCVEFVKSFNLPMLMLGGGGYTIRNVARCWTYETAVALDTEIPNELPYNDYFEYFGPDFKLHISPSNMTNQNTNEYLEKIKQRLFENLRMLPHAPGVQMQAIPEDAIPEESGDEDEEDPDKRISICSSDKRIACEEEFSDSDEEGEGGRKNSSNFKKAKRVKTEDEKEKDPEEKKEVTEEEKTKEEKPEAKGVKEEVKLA

Assay [1] has as its target T1, retinoblastoma 2 (pRb2) (mouse (endogenous in MCVECs)) (UniProt Q64700).
T1 sequence: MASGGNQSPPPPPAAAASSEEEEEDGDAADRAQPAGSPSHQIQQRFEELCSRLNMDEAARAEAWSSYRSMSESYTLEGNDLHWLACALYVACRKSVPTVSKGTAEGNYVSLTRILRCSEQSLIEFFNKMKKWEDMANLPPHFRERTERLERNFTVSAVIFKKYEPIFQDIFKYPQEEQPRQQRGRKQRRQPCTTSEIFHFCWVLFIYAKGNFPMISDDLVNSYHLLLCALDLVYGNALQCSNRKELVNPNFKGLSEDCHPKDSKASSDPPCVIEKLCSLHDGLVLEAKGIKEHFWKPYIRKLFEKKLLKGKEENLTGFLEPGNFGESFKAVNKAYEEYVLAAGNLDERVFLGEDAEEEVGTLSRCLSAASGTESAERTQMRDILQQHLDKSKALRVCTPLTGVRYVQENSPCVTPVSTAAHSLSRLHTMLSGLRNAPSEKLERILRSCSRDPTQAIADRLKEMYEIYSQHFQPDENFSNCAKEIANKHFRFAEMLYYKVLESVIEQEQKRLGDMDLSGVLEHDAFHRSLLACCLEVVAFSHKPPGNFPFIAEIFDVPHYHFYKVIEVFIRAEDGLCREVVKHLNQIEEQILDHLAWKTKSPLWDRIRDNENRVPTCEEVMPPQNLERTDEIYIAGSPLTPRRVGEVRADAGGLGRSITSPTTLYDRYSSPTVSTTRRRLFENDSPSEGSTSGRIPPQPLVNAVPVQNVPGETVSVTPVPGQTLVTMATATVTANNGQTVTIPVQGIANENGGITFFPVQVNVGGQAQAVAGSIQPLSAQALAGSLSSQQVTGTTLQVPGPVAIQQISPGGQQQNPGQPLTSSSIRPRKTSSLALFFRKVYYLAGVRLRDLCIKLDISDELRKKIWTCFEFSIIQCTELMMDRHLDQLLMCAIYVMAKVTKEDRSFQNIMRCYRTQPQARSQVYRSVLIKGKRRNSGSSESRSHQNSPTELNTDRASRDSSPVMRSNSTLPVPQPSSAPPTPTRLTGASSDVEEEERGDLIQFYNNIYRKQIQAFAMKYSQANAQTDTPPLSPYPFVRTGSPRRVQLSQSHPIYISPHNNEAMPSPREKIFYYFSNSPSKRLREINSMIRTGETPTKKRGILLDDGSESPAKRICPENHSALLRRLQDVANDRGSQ
The assay is described as follows: co-IP; endogenous proteins from 200 ug of MCVEC protein, anti-pRb2 or anti-E2F1 antibody (2 ug), protein A and G agarose beads, Western blot of the precipitate; cells with or without 100 nM 3MC for 1 h. (In general: A western blot detects proteins with antibodies after separation by electrophoresis.)

Assay [2] addresses E2F1 (mouse (endogenous in MCVECs)) (UniProt Q61501). The description is as above.

For “aryl-hydrocarbon receptor (AhR) (from UniProt P30561 10-848)”, the binding result in assay [1] and in assay [2] was “binds” in each case.
As for “c-Raf (from UniProt Q99N57 1-648) (enzyme)”, the binding entry in assay [2] is recorded as “binds”.
On to “histone deacetylase 1 (HDAC1) (from UniProt O09106 1-482) (enzyme)”, for which the binding result in assay [2] is listed as “binds”.

The values are drawn from PMC3962457.
